Assay results from publication PMC6834594, “Structure and regulation of ZCCHC4 in m^6A-methylation of 28S rRNA” (Nature Communications, 2019).
Where a chain is given by its changes, count along the chain named. For at least one entry, the source does not settle the construct or the ends of the probe. At least one verdict rests on a figure or table, not on a statement of the authors. For part of these data: Tags and fusion partners may be left off the protein sequences shown.

Key:
Experiment in all cases: EMSA
ZCCHC4 Y318A (human) = target: T1, ZCCHC4 Y318A (human) (UniProt Q9H5U6); conditions: 0.3 uM protein, 0.6 uM RNA; EMSA: 20 mM Tris-HCl pH 7.5, 100 mM NaCl, 5% glycerol, 1 mM DTT, 4 C, 1 h; 0.3 uM RNA with 0-1.2 uM protein unless noted; 6% TBE native gel; recombinant protein; residues 24-513; protein details: His6-SUMO removed by ULP1; label: none (SYBR Gold stain)
T1 sequence (looked up): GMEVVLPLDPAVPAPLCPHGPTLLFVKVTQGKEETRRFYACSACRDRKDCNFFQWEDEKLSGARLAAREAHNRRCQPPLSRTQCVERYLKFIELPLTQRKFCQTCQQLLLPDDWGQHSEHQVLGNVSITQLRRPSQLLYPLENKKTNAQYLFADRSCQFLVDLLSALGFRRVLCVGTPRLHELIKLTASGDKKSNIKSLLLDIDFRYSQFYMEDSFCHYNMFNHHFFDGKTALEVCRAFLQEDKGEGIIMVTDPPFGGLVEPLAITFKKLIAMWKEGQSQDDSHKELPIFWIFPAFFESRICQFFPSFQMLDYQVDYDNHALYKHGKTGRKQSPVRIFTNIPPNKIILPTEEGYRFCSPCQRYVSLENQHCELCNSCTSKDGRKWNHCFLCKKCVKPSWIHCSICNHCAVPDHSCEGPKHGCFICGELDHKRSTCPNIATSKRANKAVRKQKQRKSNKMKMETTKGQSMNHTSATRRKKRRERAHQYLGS

ZCCHC4 R68A (human) = ZCCHC4 R68A (human) (UniProt Q9H5U6); conditions: 0.3 uM protein, 0.6 uM RNA; EMSA: 20 mM Tris-HCl pH 7.5, 100 mM NaCl, 5% glycerol, 1 mM DTT, 4 C, 1 h; 0.3 uM RNA with 0-1.2 uM protein unless noted; 6% TBE native gel; recombinant protein; residues 24-513; protein details: His6-SUMO removed by ULP1; label: none (SYBR Gold stain)
ZCCHC4 L345A (human) = target: T2, ZCCHC4 L345A (human) (UniProt Q9H5U6); conditions: EMSA: 20 mM Tris-HCl pH 7.5, 100 mM NaCl, 5% glycerol, 1 mM DTT, 4 C, 1 h; 0.3 uM RNA with 0-1.2 uM protein unless noted; 6% TBE native gel; recombinant …; residues 24-513; protein details: His6-SUMO removed by ULP1; label: none (SYBR Gold stain)
T2 sequence (looked up): T1 sequence (looked up) with A295Y, L322A

Measured: binding result

CGGUACACCUGUCAAACGGUAACGCAGGUG [30-mer 28S rRNA]
binds: all assays above
